Data source: PubChem BioAssay AID1671195 (Yale University, 2021)
The deposit covers about 22,000 reagents; below is a part drawn at random. About 1,510 of all reagents (6.9%) count as active. 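Active includes knockdowns raising or lowering LDL uptake; positive z-scores mean more uptake, negative mean less.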

Aim: 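Regulators of LDL receptor activity judged by labelled LDL uptake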 (primary screen)
Cells: human Huh7 hepatoma cells
Reagents: siRNA pool against human genes, 18 nM
Timing: about 2 to 2.5 days of knockdown, then 8 h LDL uptake
Conditions: DiI-labelled LDL at 30 µg/ml for 8 h, in lipoprotein-deficient serum medium
Read-out: 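Per-cell DiI-LDL intensity by automated imaging; well means scaled to the plate median and given as a robust z-score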
Direction: robust z-score: higher = more LDL uptake after knockdown
Active means: 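Active when two or more replicates show a robust z-score above 2 or below -2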

| target | robust z-score, replicate 1 | robust z-score, replicate 2 | robust z-score, replicate 3 | call |
| --- | --- | --- | --- | --- |
| PAPOLB (poly(A) polymerase beta) | -0.801 | -1.31 | -0.616 | inactive |
| PROK1 (prokineticin 1) | 4.93 | 5.01 | 4.92 | active |
| CBFA2T3 (CBFA2/RUNX1 partner transcriptional co-repressor 3) | -0.961 | -1.07 | -0.544 | inactive |
| LINC02288 (long independently transcribed non-coding RNA 2288) | 2.47 | 2.3 | 2.4 | active |
| CEMIP2 (cell migration inducing hyaluronidase 2) | -0.949 | 0.628 | -0.988 | inactive |
| SEMA5A (semaphorin 5A) | -1.5 | -1.27 | -1.91 | inactive |
| IMPA2 (inositol monophosphatase 2) | -0.856 | -1.25 | -1.02 | inactive |
| RGL2 (ral guanine nucleotide dissociation stimulator like 2) | -0.886 | -0.214 | -0.698 | inactive |
| JOSD1 (Josephin domain containing 1) | -1.78 | -0.708 | 1.49 | inactive |
| HRG (histidine rich glycoprotein) | -0.106 | -0.294 | -0.3 | inactive |
| BCL2L15 (BCL2 like 15) | 1.12 | 1.05 | 1.31 | inactive |
| CROCC (ciliary rootlet coiled-coil, rootletin) | -0.146 | 1.92 | 0.331 | inactive |
| OSBPL9 (oxysterol binding protein like 9) | -0.624 | 0.212 | -0.262 | inactive |
| CDK6 (cyclin dependent kinase 6) | -0.337 | -0.347 | -0.0469 | inactive |
| PAK1 (p21 (RAC1) activated kinase 1) | 0.184 | 0.904 | -0.313 | inactive |
| APTX (aprataxin) | -0.466 | -0.273 | -0.633 | inactive |
| FSCB (fibrous sheath CABYR binding protein) | -1.02 | -0.828 | -0.588 | inactive |
| CLEC4GP1 (C-type lectin domain family 4 member G pseudogene 1) | 0.39 | 0.332 | 0.255 | inactive |
| RBM5 (RNA binding motif protein 5) | 0.978 | 0.803 | 0.215 | inactive |
| HMGN1 (high mobility group nucleosome binding domain 1) | -0.788 | -1.46 | -1.2 | inactive |
| CEP57 (centrosomal protein 57) | 0.563 | -0.33 | -0.908 | inactive |
| F11-AS1 (F11 antisense RNA 1) | 1.04 | 1.11 | 1.16 | inactive |
| PCSK1 (proprotein convertase subtilisin/kexin type 1) | -1.05 | -1.64 | -1.1 | inactive |
| PRKCQ-AS1 (PRKCQ antisense RNA 1) | -0.385 | -0.429 | -0.881 | inactive |
| PCM1 (pericentriolar material 1) | -0.174 | -0.796 | 0.139 | inactive |
| WNT2 (Wnt family member 2) | -2.09 | -1.12 | -2.08 | active |
| TMED3 (transmembrane p24 trafficking protein 3) | 1.49 | -0.0236 | 0.139 | inactive |
| ARHGAP10 (Rho GTPase activating protein 10) | -2.17 | -2.11 | -1.99 | active |

3 entries from above, showing only “robust z-score, replicate 1”:
CDK6 (cyclin dependent kinase 6) = -0.337
PAK1 (p21 (RAC1) activated kinase 1) = 0.184
APTX (aprataxin) = -0.466
